# Patent US10188629B2, “Prodrug of green tea epigallocatechin-3-gallate (pro-EGCG) for use in the treatment of endometriosis” (The Hong Kong Polytechnic University, priority 2012, dated 2019)
# The name of at least one read-out is uncertain.
# Key:
# [1] = intragastric administration, CF-1 mice; cited from earlier work
# [2] = EGCG and pro-EGCG concentrations in plasma and lesions (pharmacokinetics); type: in vivo, mice; conditions: 50 mg/kg i.p. once per day
smiles,measurement,setting,value
"CC(=O)Oc1cc(OC(C)=O)c2c(c1)O[C@H](c1cc(OC(C)=O)c(OC(C)=O)c(OC(C)=O)c1)[C@H](OC(=O)c1cc(OC(C)=O)c(OC(C)=O)c(OC(C)=O)c1)C2 [pro-EGCG, (−)-EGCG octaacetate]",bioavailability compared with equimolar doses of EGCG,[1],better bioavailability than with administration of equimolar doses of EGCG
same,bioavailability of the treatment in endometriotic lesions compared with EGCG,[2]; lesions after intervention,significantly higher than that with EGCG
same,bioavailability of the treatment in plasma compared with EGCG,[2]; plasma during intervention,significantly higher than that with EGCG
